The list is a part of this screen's results and no random one: it gathers tests that were run many times, whatever their T/C, doses with no T/C, and many T/C values between a quarter and a half above the control. Other doses and runs of a compound stand elsewhere. T/C is the treated group as % of the vehicle group. Some entries give survivors of the animals treated and no T/C: the source files T/C as zero there, which appears to mark a toxic dose or a test without result, not a measured value. Some doses without a T/C left all or most animals alive at the check, yet need not have been tolerated: survival well below the control is almost never listed, so the zero probably covers shortened survival too. Survivors were counted at the toxicity check, usually on the fifth day, unless a day is given; later deaths do not show. Schedule codes are those of the source, read here as Q, the interval in days (D) or hours (H), X, the number of doses. Some entries hold several experiments; their values stand side by side, smallest first. Marks such as (2×) count equal records among those shown. Where survival is the endpoint, the PubChem record calls one and a half times the control and up active, and a quarter to a half above the control has no call in these data; cut-offs in other NCI protocols can differ. Some T/C values are followed by the survivors on the day toxicity was checked, most often the fifth; without a count, all were alive then.
System: L1210 leukemia ip in BDF1 mice, survival T/C
Assay: NCI In Vivo Anticancer Drug Screen. Data for tumor model L1210 Leukemia (intraperitoneal) in B6D2F1 (BDF1) mice
Conditions: T/C endpoint: mean survival time, higher T/C = longer survival
[1] = dose: 400.0 mg/kg/injection, schedule: Q04DX002 (ip), vehicle: saline with Tween-80
[2] = dose: 100.0 mg/kg/injection, schedule: Q01DX001 (ip), vehicle: saline
[3] = dose: 200.0 mg/kg/injection, schedule: Q01DX001 (ip), vehicle: saline
[4] = dose: 400.0 mg/kg/injection, schedule: Q01DX001 (ip), vehicle: saline
[5] = dose: 400.0 mg/kg/injection, schedule: Q01DX009 (ip), vehicle: saline
[6] = dose: 67.0 mg/kg/injection, schedule: Q01DX001 (ip), vehicle: saline
[7] = dose: 100.0 mg/kg/injection, schedule: Q01DX001 (ip), vehicle: carboxymethylcellulose (CMC)
[8] = dose: 100.0 mg/kg/injection, schedule: Q04DX003 (ip), vehicle: saline
[9] = dose: 150.0 mg/kg/injection, schedule: Q01DX001 (ip), vehicle: saline
[10] = dose: 200.0 mg/kg/injection, schedule: Q01DX001 (ip), vehicle: carboxymethylcellulose (CMC)
[11] = dose: 400.0 mg/kg/injection, schedule: Q01DX001 (ip), vehicle: carboxymethylcellulose (CMC)
[12] = dose: 200.0 mg/kg/injection, schedule: Q04DX003 (ip), vehicle: saline with Tween-80
[13] = dose: 400.0 mg/kg/injection, schedule: Q04DX003 (ip), vehicle: saline with Tween-80

For `CN(N=O)C(=O)NC(=O)NCCCl`, the T/C (dose: 18.0 mg/kg/injection, schedule: Q01DX001 (ip), vehicle: carboxymethylcellulose (CMC)) was 134 % of control, the T/C (dose: 40.0 mg/kg/injection, schedule: Q01DX001 (ip), vehicle: carboxymethylcellulose (CMC)) was 130 % of control and the T/C (dose: 60.0 mg/kg/injection, schedule: Q01DX001 (ip), vehicle: carboxymethylcellulose (CMC)) was 134 % of control. For the same compound, the T/C (dose: 93.0 mg/kg/injection, schedule: Q01DX001 (ip), vehicle: carboxymethylcellulose (CMC)) was 136 % of control, the T/C (dose: 187.0 mg/kg/injection, schedule: Q01DX001 (ip), vehicle: carboxymethylcellulose (CMC)) was 146 % of control and the survivor count (dose: 375.0 mg/kg/injection, schedule: Q01DX001 (ip), vehicle: carboxymethylcellulose (CMC)) was 4 of 6.

In the case of `O=C1C2CCCCC1C(N1CCCC1)CC2` (stereo not given), the survivor count (dose: 400.0 mg/kg/injection, schedule: Q01DX009 (sc), vehicle: olive oil, sesame oil, peanut oil) is reported as 4 of 6.

`O=C(O)C1(Br)CC12c1ccccc1-c1ccccc12` (stereo not given) was tested, and the survivor count (dose: 400.0 mg/kg/injection, schedule: Q01DX001 (ip), vehicle: acetone) was 0 of 6.

With `O=C1OC(c2ccccc2)=N/C1=C\c1ccccc1Cl` the survivor count [1] was 3 of 3.

For `C=Cc1nc2ccccc2[nH]1` (tested in a mixture with another compound), the survivor count (dose: 40.0 mg/kg/injection, schedule: Q01DX001 (ip), vehicle: saline) was 3 of 6, the survivor count [2] was 0 of 6 and the survivor count [3] was 0 of 6. For the same compound, the survivor count [4] was 0 of 6.

With `O=C(O)CNCC(=O)O` the survivor count (dose: 200.0 mg/kg/injection, schedule: Q01DX009 (ip), vehicle: saline) was 6 of 6 and the survivor count [5] was 6 of 6.

For `CS(=O)(=O)OCCF`, the survivor count (dose: 10.0 mg/kg/injection, schedule: Q01DX009 (ip), vehicle: carboxymethylcellulose (CMC)) was 4 of 6, the survivor count (dose: 12.5 mg/kg/injection, schedule: Q04DX003 (ip), vehicle: saline with Tween-80) was 2 of 6 and the survivor count (dose: 18.0 mg/kg/injection, schedule: Q01DX009 (ip), vehicle: saline) was 0 of 6. The T/C (dose: 18.0 mg/kg/injection, schedule: Q01DX015 (ip), vehicle: saline) was 125 % of control [4 of 6 alive], the T/C (dose: 25.0 mg/kg/injection, schedule: Q01DX001 (ip), vehicle: saline) was 131 % of control and the survivor count (dose: 25.0 mg/kg/injection, schedule: Q01DX009 (ip), vehicle: acetone) was 6 of 6. For the same compound, the survivor count (dose: 25.0 mg/kg/injection, schedule: Q04DX003 (ip), vehicle: saline with Tween-80) was 0 of 6, the survivor count (dose: 27.0 mg/kg/injection, schedule: Q01DX009 (ip), vehicle: saline) was 0 of 6 and the survivor count (dose: 36.0 mg/kg/injection, schedule: Q01DX009 (ip), vehicle: saline) was 0 of 6. For the same compound, the survivor count (dose: 50.0 mg/kg/injection, schedule: Q01DX001 (ip), vehicle: saline) was 2 of 4, the survivor count (dose: 50.0 mg/kg/injection, schedule: Q01DX009 (ip), vehicle: acetone) was 5 of 6 and the survivor count (dose: 50.0 mg/kg/injection, schedule: Q01DX015 (ip), vehicle: saline) was 1 of 6 and 4 of 6. For the same compound, the survivor count (dose: 50.0 mg/kg/injection, schedule: Q04DX003 (ip), vehicle: saline) was 2 of 6, the T/C [6] was 97 % of control [3 of 4 alive] and the survivor count [6] was 2 of 4, 3 of 6, 4 of 4. For the same compound, the T/C [7] was 130 % of control [5 of 6 alive], the T/C (dose: 100.0 mg/kg/injection, schedule: Q01DX001 (ip), vehicle: saline, evaluated on day 30) was 109 % of control and the survivor count [2] was 0 of 6, 1 of 4, 2 of 4, 3 of 6. For the same compound, the T/C (dose: 100.0 mg/kg/injection, schedule: Q01DX001 (ip), vehicle: saline, run until all animals had died) was 132 [3 of 4 alive] and 161 % of control [5 of 6 alive], the survivor count [8] was 2 of 6 and the T/C (dose: 150.0 mg/kg/injection, schedule: Q01DX001 (ip), vehicle: carboxymethylcellulose (CMC)) was 133 % of control [4 of 6 alive]. The T/C (dose: 150.0 mg/kg/injection, schedule: Q01DX001 (ip), vehicle: saline, evaluated on day 30) was 147 % of control [4 of 6 alive], the survivor count [9] was 0 of 4, 1 of 4, 3 of 4 and the T/C (dose: 150.0 mg/kg/injection, schedule: Q01DX001 (ip), vehicle: saline, run until all animals had died) was 154 % of control [5 of 6 alive]. The T/C [3] was 87 % of control [3 of 4 alive], the survivor count [3] was 0 of 6, 1 of 6, 1 of 4 and the survivor count (dose: 200.0 mg/kg/injection, schedule: Q04DX003 (ip), vehicle: saline) was 2 of 6. For the same compound, the survivor count [4] was 1 of 6 and the survivor count (dose: 400.0 mg/kg/injection, schedule: Q04DX003 (ip), vehicle: saline) was 0 of 6.

In the case of `CC(=O)Nc1nc(SCc2ccccc2)c2c(no[n+]2[O-])n1`, the survivor count [1] is reported as 0 of 3.

With `CC/C=C(CC)/C(=C/CC)CC` the survivor count [5] was 1 of 6.

In the case of `CC(=O)NCc1cccc([N+](=O)[O-])c1`, the T/C (dose: 50.0 mg/kg/injection, schedule: Q01DX005 (ip), vehicle: saline) is reported as 128 % of control, the T/C (dose: 200.0 mg/kg/injection, schedule: Q01DX005 (ip), vehicle: saline) is reported as 125 % of control and the survivor count (dose: 400.0 mg/kg/injection, schedule: Q01DX005 (ip), vehicle: saline) is reported as 1 of 4.

`CCOC(=O)c1occ(Cl)c1Cl` was tested, and the survivor count [4] was 2 of 6.

For `C[N+](C)(C)/N=C/c1ccc(Cl)cc1`, the survivor count (dose: 50.0 mg/kg/injection, schedule: Q01DX001 (ip), vehicle: carboxymethylcellulose (CMC)) was 2 of 4, the survivor count (dose: 80.0 mg/kg/injection, schedule: Q01DX001 (ip), vehicle: carboxymethylcellulose (CMC)) was 2 of 4 and the survivor count [7] was 2 of 4. The survivor count [10] was 0 of 4 and the survivor count [11] was 0 of 4.

For `CN1CC(N(C)C)CCC/C=C\C1=O` (stereo not given), the survivor count [9] was 1 of 6 and the survivor count (dose: 300.0 mg/kg/injection, schedule: Q01DX001 (ip), vehicle: saline) was 0 of 6.

`CC(O)C[As](=O)(O)c1ccc(Cl)cc1` (stereo not given) was tested, and the survivor count (dose: 50.0 mg/kg/injection, schedule: Q04DX003 (ip), vehicle: saline with Tween-80) was 5 of 6, the survivor count (dose: 100.0 mg/kg/injection, schedule: Q04DX003 (ip), vehicle: saline with Tween-80) was 0 of 6 (2×) and the survivor count [12] was 0 of 6. For the same compound, the survivor count [13] was 0 of 6.

With `FC(F)(F)c1ccc2c(c1)N(CCCN1CCN(CCOCCCl)CC1)c1ccccc1S2` the survivor count (dose: 6.25 mg/kg/injection, schedule: Q01DX009 (ip), vehicle: saline) was 6 of 6, the survivor count (dose: 12.5 mg/kg/injection, schedule: Q01DX009 (ip), vehicle: saline) was 6 of 6 and the survivor count (dose: 25.0 mg/kg/injection, schedule: Q01DX009 (ip), vehicle: saline) was 6 of 6. For the same compound, the survivor count (dose: 50.0 mg/kg/injection, schedule: Q01DX009 (ip), vehicle: saline) was 5 of 6 and the survivor count [8] was 3 of 6.

For `Clc1nc(Cl)c2c(n1)NCCN2`, the survivor count (dose: 200.0 mg/kg/injection, schedule: Q01DX009 (ip), vehicle: Klucel (hydroxypropylcellulose) (HPC)) was 0 of 3.

`O=[N+]([O-])c1cc(S(=O)(=O)C(F)F)ccc1Cl` was tested, and the survivor count (dose: 200.0 mg/kg/injection, schedule: Q01DX009 (ip), vehicle: gum acacia) was 2 of 6, the survivor count (dose: 200.0 mg/kg/injection, schedule: Q04DX003 (ip), vehicle: gum acacia) was 4 of 6 and the survivor count (dose: 400.0 mg/kg/injection, schedule: Q04DX003 (ip), vehicle: gum acacia) was 0 of 6.

In the case of `CCN(CCO)c1ccc(N)cc1C`, the survivor count (dose: 25.0 mg/kg/injection, schedule: Q04DX003 (ip), vehicle: saline) is reported as 6 of 6.

For `O=S(=O)(F)c1ccccc1S(=O)(=O)Cl`, the survivor count [10] was 1 of 6 and the survivor count [11] was 0 of 6.

`Cc1cc([N+](=O)[O-])ccc1S(=O)(=O)F` was tested, and the survivor count [12] was 3 of 3 and the survivor count [13] was 2 of 3.
